# Test: general procedure: solution-phase peptide synthesis; N-hydroxysuccinimide with EDC hydrochloride or N,N'-dicyclohexylcarbodiimide
Substance,step yield (coupling step) [%],other results
"Glycylglycyl-L-phenylalanyl-N-(4-{[(1S,9S)-9-ethyl-5-fluoro-9-hydroxy-4-methyl-10,13-dioxo-2,3,9,10,13,15-hexahydro-1H,12H-benzo[de]pyrano[3′,4′:6,7]indolizino[1,2-b]quinolin-1-yl]amino}-4-oxobutyl)glycinamide trifluoroacetate",–,"step yield (late stage modification step, trifluoroacetate): 99%"
"N-(tert-butoxycarbonyl)glycylglycyl-L-phenylalanyl-N-(4-{[(1S,9S)-9-ethyl-5-fluoro-9-hydroxy-4-methyl-10,13-dioxo-2,3,9,10,13,15-hexahydro-1H,12H-benzo[de]pyrano[3′,4′:6,7]indolizino[1,2-b]quinolin-1-yl]amino}-4-oxobutyl)glycinamide",–,conjugation yield (conjugation step): 73%
"tert-Butyl (3S,12S)-12-benzyl-21-{[(1S,9S)-9-ethyl-5-fluoro-9-hydroxy-4-methyl-10,13-dioxo-2,3,9,10,13,15-hexahydro-1H,12H-benzo[de]pyrano[3′,4′:6,7]indolizino[1,2-b]quinolin-1-yl]amino}-3-{[(9H-fluoren-9-ylmethoxy)carbonyl]amino}",70,–
"tert-Butyl (5S,14S)-5-benzyl-1-{[(1S,9S)-9-ethyl-5-fluoro-9-hydroxy-4-methyl-10,13-dioxo-2,3,9,10,13,15-hexahydro-1H,12H-benzo[de]pyrano[3′,4′:6,7]indolizino[1,2-b]quinolin-1-yl]amino}-14-{[(9H-fluoren-9-ylmethoxy)carbonyl]amino}",73,–
